Experimental data from US20090004183A1 (published 2009).
Results are given in words; binding and its absence hold for the method and conditions named. Some entries that bind do so weakly or less than the wild type.

Protein sequences, listed by entry. Tags and fused reporters are not part of them. Lines headed by an entry give the natural chain unless they say otherwise; changes in a name come on top. Residues count along the entry.
UniProt P01024, residues 23-1663: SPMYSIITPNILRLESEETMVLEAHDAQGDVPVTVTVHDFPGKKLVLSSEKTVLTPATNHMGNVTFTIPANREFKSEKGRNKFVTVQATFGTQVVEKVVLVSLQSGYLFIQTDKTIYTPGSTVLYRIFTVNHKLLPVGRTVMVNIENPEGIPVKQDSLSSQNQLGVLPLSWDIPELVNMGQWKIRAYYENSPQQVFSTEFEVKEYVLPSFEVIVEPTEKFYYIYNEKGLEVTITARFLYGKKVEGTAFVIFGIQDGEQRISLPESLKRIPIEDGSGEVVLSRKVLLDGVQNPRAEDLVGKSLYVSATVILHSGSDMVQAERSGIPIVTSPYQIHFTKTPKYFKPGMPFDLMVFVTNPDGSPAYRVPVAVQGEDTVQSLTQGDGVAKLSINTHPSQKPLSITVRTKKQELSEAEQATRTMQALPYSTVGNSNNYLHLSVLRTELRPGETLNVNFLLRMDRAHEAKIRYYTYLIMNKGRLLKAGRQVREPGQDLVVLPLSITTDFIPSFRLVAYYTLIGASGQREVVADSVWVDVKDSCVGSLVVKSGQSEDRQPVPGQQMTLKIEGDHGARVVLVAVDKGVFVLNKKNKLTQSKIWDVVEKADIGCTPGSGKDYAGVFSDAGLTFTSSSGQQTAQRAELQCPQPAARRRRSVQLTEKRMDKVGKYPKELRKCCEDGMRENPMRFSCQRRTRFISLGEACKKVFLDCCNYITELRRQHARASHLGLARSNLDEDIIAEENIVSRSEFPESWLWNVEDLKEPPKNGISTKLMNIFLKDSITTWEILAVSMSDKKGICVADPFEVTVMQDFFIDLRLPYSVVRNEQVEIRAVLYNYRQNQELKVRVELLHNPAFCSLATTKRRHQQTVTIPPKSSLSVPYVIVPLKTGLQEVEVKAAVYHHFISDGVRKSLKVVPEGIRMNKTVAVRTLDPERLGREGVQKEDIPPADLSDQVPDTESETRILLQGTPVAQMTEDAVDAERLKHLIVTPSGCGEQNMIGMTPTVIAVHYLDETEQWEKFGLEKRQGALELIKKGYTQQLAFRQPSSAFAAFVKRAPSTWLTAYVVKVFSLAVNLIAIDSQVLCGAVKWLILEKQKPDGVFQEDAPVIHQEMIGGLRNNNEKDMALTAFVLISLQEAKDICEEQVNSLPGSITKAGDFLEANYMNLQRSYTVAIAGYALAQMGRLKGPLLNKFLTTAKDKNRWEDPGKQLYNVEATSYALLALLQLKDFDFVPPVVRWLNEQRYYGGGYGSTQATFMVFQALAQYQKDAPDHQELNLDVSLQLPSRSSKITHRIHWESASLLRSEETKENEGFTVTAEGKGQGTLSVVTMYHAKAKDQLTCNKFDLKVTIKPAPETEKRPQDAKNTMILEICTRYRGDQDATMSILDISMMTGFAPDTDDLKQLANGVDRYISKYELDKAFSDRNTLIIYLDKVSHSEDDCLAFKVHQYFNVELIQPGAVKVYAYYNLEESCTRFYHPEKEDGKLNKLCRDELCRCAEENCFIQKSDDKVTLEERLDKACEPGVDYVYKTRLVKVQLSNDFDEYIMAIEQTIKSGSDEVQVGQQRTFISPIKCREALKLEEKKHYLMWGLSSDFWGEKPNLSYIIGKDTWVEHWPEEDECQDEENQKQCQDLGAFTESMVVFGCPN

B1: mAb 3E7 (antibody, mouse IgG1, V domains shown)
VH: EVQLQESGPSLVKPSQTLSLTCSVTGDSITSDYWNWIRKFPGNKLESMGYITYSGTTYYNPSLKSRISITRDTSKNQYYLQLNSVTSEDTATYYCARGVDYEPSYYFDYWGQGTTLTVSS
VL: DIQMTQTTSSLSASLGDRVTISCSASQGISNYLNWYQQKPDGTVKLLIYYTSSLHSGVPSRFSGSGSGTDYSLTISNLEPEDIATYYCQQYSNLPWTFGGGTKLEIK
notes: also called mouse IgG1 mAb 3E7; A1488 mAb 3E7
B2: mAb H17 (antibody, V domains shown)
VH: EVQLQESGPSLVKPSQTLSLTCTVSGDSITSDYWNWIRQAPGKGLESMGYITYSGTTYYNPSLKSRVTISRDTSKNQYYMELSSLRSEDTATYYCARGVDYEPSYYFDYWGQGTLVTVSS
VL: DIQMTQSPSSLSASVGDRVTITCSASQGISNYLNWYQQKPGKAPKLLIYYTSSLHSGVPSRFSGSGSGTDYSLTISSLQPEDIATYYCQQYSNLPWTFGQGTKVEIK
notes: It is a chimeric, de-immunized form of 3E7 with human gamma1 and kappa constant regions, expressed in NS0 cells; also called H117; deimmunized chimeric 3E7

Key:
C3(H2O) (human) [1] = target: C3(H2O) (human) (UniProt P01024); test: inferred from lack of A1488 mAb binding to Sepharose 4B when the mAb is present during opsonization in 50% NHS
C3(H2O) (human) [2] = target: C3(H2O) (human) (UniProt P01024); test: pre-incubation of the mAb with KBr-treated NHS or purified C3, then AP activation assay on Sepharose 4B (FIGS. 4B, 4C)

Binder | binding (C3(H2O) (human) [1]) | binding (C3(H2O) (human) [2])
B1 | binds | binds
B2 | binds | binds
